The assay deals with T1, CD146 (mouse (endogenous in 10T1/2)) (UniProt Q8R2Y2).
T1 sequence: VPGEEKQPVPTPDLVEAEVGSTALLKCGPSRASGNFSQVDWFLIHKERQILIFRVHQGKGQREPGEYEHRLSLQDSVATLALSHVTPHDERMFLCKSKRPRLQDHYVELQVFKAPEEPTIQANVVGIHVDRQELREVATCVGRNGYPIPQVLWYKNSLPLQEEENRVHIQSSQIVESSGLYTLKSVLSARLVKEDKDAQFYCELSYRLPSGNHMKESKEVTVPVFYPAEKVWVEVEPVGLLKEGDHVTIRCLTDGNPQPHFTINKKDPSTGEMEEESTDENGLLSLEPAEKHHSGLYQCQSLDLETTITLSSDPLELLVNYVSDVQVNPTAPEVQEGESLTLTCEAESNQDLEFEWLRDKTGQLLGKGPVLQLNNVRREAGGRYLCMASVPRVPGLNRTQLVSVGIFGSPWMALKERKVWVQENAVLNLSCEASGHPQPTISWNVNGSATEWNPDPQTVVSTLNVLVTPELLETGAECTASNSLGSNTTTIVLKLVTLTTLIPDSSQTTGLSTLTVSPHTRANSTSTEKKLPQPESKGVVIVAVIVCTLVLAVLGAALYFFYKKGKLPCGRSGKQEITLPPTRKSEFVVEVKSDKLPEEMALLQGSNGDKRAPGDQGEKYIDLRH
Kind of assay: co-IP; endogenous proteins in 10T1/2 cells, with PDGF-B (20 ng/mL); also after Cd146-siRNA, Cd146-siRNA plus a Cd146-expressing plasmid, or in the presence of mIgG or AA98 (50 μg/mL); which protein was precipitated is not told.

Chains of the proteins cited; added tags and fusions are not shown. Residues count along the entry.
UniProt P05622, residues 32-1098: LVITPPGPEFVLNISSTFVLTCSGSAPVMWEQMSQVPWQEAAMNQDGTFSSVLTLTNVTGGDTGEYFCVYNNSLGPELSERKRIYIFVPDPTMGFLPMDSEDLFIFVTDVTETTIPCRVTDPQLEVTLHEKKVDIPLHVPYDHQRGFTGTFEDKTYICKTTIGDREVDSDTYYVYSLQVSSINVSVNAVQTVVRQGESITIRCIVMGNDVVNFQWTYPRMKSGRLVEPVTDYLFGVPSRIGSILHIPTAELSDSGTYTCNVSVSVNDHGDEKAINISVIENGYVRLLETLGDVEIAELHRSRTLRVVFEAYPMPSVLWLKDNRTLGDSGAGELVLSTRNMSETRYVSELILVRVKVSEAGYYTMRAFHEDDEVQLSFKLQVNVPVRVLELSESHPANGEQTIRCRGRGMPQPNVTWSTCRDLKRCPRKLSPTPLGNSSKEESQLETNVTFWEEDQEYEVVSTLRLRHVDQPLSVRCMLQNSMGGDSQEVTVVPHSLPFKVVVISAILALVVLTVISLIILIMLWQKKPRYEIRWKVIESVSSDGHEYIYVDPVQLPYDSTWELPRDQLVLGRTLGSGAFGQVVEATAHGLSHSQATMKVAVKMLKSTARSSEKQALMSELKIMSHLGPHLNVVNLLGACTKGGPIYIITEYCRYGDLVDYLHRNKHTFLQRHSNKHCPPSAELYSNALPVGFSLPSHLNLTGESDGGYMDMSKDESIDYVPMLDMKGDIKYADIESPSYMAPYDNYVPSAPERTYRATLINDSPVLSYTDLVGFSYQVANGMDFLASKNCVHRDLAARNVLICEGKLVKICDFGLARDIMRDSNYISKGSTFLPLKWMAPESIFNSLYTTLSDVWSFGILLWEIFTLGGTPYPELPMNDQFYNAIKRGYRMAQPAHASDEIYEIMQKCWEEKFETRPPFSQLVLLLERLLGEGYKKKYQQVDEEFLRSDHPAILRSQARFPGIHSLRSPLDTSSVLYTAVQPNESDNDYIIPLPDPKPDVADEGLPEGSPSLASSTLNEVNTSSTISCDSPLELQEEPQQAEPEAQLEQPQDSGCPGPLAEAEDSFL

These are yes or no findings as the source states them, for the method shown. Binding seen in cells or lysates may run through a third protein. Some entries that bind do so weakly or less than the wild type.

Consider “PDGFRβ (from UniProt P05622 32-1098) (receptor)”, for which the binding result is on record as “binds”.

In the case of “phosphorylated PDGFRβ (from UniProt P05622 32-1098) (receptor)”, the binding entry is on record as “binds”.

The record behind these values is article PMC6053352.
